The whole screen tested about 320,000 compounds, of which about 22,000 (6.9%) were called active. The shares of active, inactive and inconclusive entries below differ from those in the screen. Calls follow the shape of the dose curve; as a rule, active = well fitted inhibition curve with a large enough effect; inconclusive = small, poorly fitted or top-dose-only effect, or another doubt; inactive = no such curve, though single readings can be large or run the other way. Potencies beside an inconclusive call are fits to weak or partial responses and may not hold up.
experiment: Primary qHTS for delayed death inhibitors of the malarial parasite plastid, 96 hour incubation; conditions: P. falciparum luciferase reporter growth; series mostly up to 28.7 µM; activity change, negative = inhibition: at the top concentration
In short: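 P. falciparum expressing integrated firefly luciferase grown in erythrocytes (2% hematocrit, 0.05% parasitemia final) with compounds for 96 hours at 37 C, 5% CO2. Growth inhibition read as loss of luminescence after adding luciferase detection reagent.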
% is scaled to controls: 0 for no effect and ±100 for the full control effect; potency is read from the fitted curve at half-maximal effect.

| Compound | activity change, negative = inhibition | Potency |
| --- | --- | --- |
| Cc1ccc(-c2ccc(SCC(=O)Nc3nonc3C)nn2)cc1 | inactive: -4.96% | – |
| Cc1cc(C(F)F)nn1CC(=O)NCc1ccco1 | inactive: 46.5% | – |
| O=C(NC(=S)Nc1ccccc1Cl)C1CC1 | – | inconclusive: 13.1 µM [inhibitor, partial curve, poor fit] |
| Cc1oc(-c2ccc(Cl)cc2)cc1-c1nn2c(-c3ccco3)nnc2s1 | – | inconclusive: 16.5 µM [inhibitor, partial curve, poor fit] |
| CSc1ccccc1NC(=O)Nc1ccc(F)c(Cl)c1 | – | inconclusive: 18.5 µM [inhibitor, single point] |
| COc1ccc(CNCCc2c(C)[nH]c3ccc(OC(F)(F)F)cc23)c(OC)c1 | – | inconclusive: 16.5 µM [inhibitor, single point] |
| CC(=O)c1ccc(NC(=O)CSc2nnc(-c3ccco3)o2)cc1 | – | inconclusive: 18.5 µM [inhibitor, partial curve, poor fit] |
| CCOCCCn1c(SCC(=O)Nc2ccc3[nH]c(=O)[nH]c3c2)nc2ccccc2c1=O | inactive: 11.6% | – |
| NC(=O)c1ccc(NC(=O)COC(=O)/C=C/c2cn(-c3ccccc3)nc2-c2cccnc2)cc1 | inactive: 3.91% | – |
| O=C(Nc1cccc(-c2cccc(Cl)c2)c1)C1CCN(Cc2ccon2)CC1 | – | active: 8.28 µM |
| O=C(Nc1nccs1)c1ccc(CSc2ccccc2)o1 | – | inconclusive: 14.7 µM [inhibitor, partial curve, poor fit] |
| COc1ccccc1CNC(=O)Cn1cccc1C(=O)c1ccccc1C | inactive: 68.5% | – |
| O=C(Nc1ccccc1Cl)N1CCN(C/C=C/c2ccccc2)CC1 | – | inconclusive: 9.28 µM [inhibitor, partial curve] |
| O=C(O)[C@H](Cc1c[nH]c2ccccc12)Nc1ncccc1[N+](=O)[O-] | inactive: 4.26% | – |
| CC(C)C1N(C(=O)CN2CCCCC2)CCN1S(=O)(=O)c1ccccc1 (centres undefined) | – | inconclusive: 1.04 µM [inhibitor, full curve, poor fit] |
| CCc1ccc(-n2cc(-c3ccc(F)cc3)[n+]3c2SCCC3)cc1 | – | inconclusive: 2.33 µM [inhibitor, partial curve, poor fit] |
| Clc1ccccc1Cc1noc(CN2CCN(c3cnccn3)CC2)n1 | – | inconclusive: 11.7 µM [inhibitor, single point] |
| O=C(NCc1ccccc1)C(=O)NCC1OCCN1S(=O)(=O)c1ccc2c(c1)OCCO2 (centres undefined) | – | inconclusive: 9.28 µM [inhibitor, partial curve, poor fit] |
| O=c1[nH][nH]c(=O)c2c(NS(=O)(=O)c3ccccc3)cccc12 | – | inconclusive: 13.1 µM [inhibitor, single point] |

Reference: PubChem BioAssay AID504834 (National Center for Advancing Translational Sciences (NCATS), 2011)
